Test results: patent publication US20090149339A1
No constants are given. Whether binding was seen depends on the method and setting. Binding can be weak; no strength is given.

Tests used:
[1] = molecular target: GST-KIAA0561 PDZ domain fusion protein (KIAA0561 AA948-1038; PDZ domain 1 of 1); test: G assay
[2] = molecular target: GST-KIAA0561 PDZ domain fusion protein (KIAA0561 AA948-1038; PDZ domain 1 of 1); test: A/G assays (told in text)

binding [1] | binding [2] | Binder
binds | – | LNSCSNRRVYKKMPSIESDV (N-terminal biotin) [NMDA C-terminal PL peptide AA34.2L, biotinylated]
binds | – | LASKSAEEGKQIPDSLSTDL (N-terminal biotin) [DOCK2 C-terminal PL peptide AA40L, biotinylated]
binds | binds | SSKSKSSEESQTFFGLYKL (N-terminal biotin) [FasLigand C-terminal PL peptide AA23L-M, biotinylated]
